{
  "source": "PubChem BioAssay AID330",
  "about": "(DTP/NCI, 2004)",
  "tested_on": "P388 leukemia ip, CD2F1 mice, survival T/C",
  "experiment": "NCI In Vivo Anticancer Drug Screen. Data for tumor model P388 Leukemia (intraperitoneal) in CD2F1 (CDF1) mice",
  "details": "T/C endpoint: median survival time, higher T/C = longer survival",
  "key": {"[1]": {"details": "dose: 28.4 mg/kg/injection, schedule: Q04DX003 (ip), vehicle: saline with Tween-80"}},
  "note": "The list shows only some results of the screen, not a fair sample: it gathers tests that were run many times, whatever their T/C, doses with no T/C, and many T/C values between a quarter and a half above the control. Further doses and runs are listed elsewhere. T/C is the treated group as % of the vehicle group. Some entries give survivors of the animals treated and no T/C: the source files T/C as zero there, which appears to mark a toxic dose or a test without result, not a measured value. Some doses without a T/C left all or most animals alive at the check, yet need not have been tolerated: the source hardly ever lists a survival T/C far under the control, and the zero likely stands for such cases as well. Survivors were counted at the toxicity check, usually on the fifth day, unless a day is given; later deaths do not show. Schedule codes are those of the source, taken here to give the interval after Q, in days (D) or hours (H), and the number of doses after X. Some doses were run more than once; the values are given in rising order. Where survival is the endpoint, the PubChem record calls one and a half times the control and up active, and a quarter to a half above the control has no call in these data; cut-offs in other NCI protocols can differ. Some T/C values are followed by the survivors on the day toxicity was checked, most often the fifth; without a count, all were alive then.",
  "data": [
    {"compound": "Cc1ccc(NC(=O)c2cc3ccccc3cc2O)c(C)c1.Cc1ccc(NC(=O)c2cc3ccccc3cc2[O-])c(C)c1.[Ni+2]", "values": [
      {"measurement": "survivor count", "setting": "dose: 12.5 mg/kg/injection, schedule: Q01DX009 (ip), vehicle: saline", "result": "6 of 6"},
      {"measurement": "survivor count", "setting": "dose: 25.0 mg/kg/injection, schedule: Q01DX009 (ip), vehicle: saline", "result": "6 of 6"},
      {"measurement": "survivor count", "setting": "dose: 50.0 mg/kg/injection, schedule: Q01DX009 (ip), vehicle: saline", "result": "6 of 6"},
      {"measurement": "survivor count", "setting": "dose: 100.0 mg/kg/injection, schedule: Q01DX009 (ip), vehicle: saline", "result": "1 of 6"},
      {"measurement": "survivor count", "setting": "dose: 200.0 mg/kg/injection, schedule: Q01DX009 (ip), vehicle: saline", "result": "0 of 6"}
    ]},
    {"compound": "CCOC(=O)SC(=S)OCC", "values": [
      {"measurement": "survivor count", "setting": "dose: 50.0 mg/kg/injection, schedule: Q01DX009 (ip), vehicle: saline with Tween-80", "result": "5 of 6"},
      {"measurement": "survivor count", "setting": "dose: 100.0 mg/kg/injection, schedule: Q01DX009 (ip), vehicle: saline with Tween-80", "result": "0 of 6"},
      {"measurement": "survivor count", "setting": "dose: 200.0 mg/kg/injection, schedule: Q01DX009 (ip), vehicle: saline with Tween-80", "result": "0 of 6"},
      {"measurement": "survivor count", "setting": "dose: 400.0 mg/kg/injection, schedule: Q01DX009 (ip), vehicle: saline with Tween-80", "result": "0 of 6"}
    ]},
    {"compound": "C=C1CC2(CC[N+](Cc3ccccc3)(Cc3ccccc3)CC2)OC1=O", "values": [
      {"measurement": "survivor count", "setting": "dose: 100.0 mg/kg/injection, schedule: Q01DX005 (ip), vehicle: saline", "result": "0 of 5"},
      {"measurement": "survivor count", "setting": "dose: 200.0 mg/kg/injection, schedule: Q01DX005 (ip), vehicle: saline", "result": "0 of 5"}
    ]},
    {"compound": "CC(=O)Nc1ccc(NC(=O)c2ccc([As](O)O)cc2)cc1", "values": [
      {"measurement": "T/C", "setting": "dose: 100.0 mg/kg/injection, schedule: Q04DX003 (ip), vehicle: other", "result": "130 % of control"},
      {"measurement": "T/C", "setting": "dose: 200.0 mg/kg/injection, schedule: Q04DX003 (ip), vehicle: other", "result": "125 % of control"},
      {"measurement": "T/C", "setting": "dose: 400.0 mg/kg/injection, schedule: Q04DX003 (ip), vehicle: other", "result": "125 % of control [4 of 6 alive]"}
    ]},
    {"compound": "O=C(/C=C/c1cccnc1)/C=C/c1cccnc1", "values": [
      {"measurement": "survivor count", "setting": "dose: 100.0 mg/kg/injection, schedule: Q01DX009 (ip), vehicle: Klucel (hydroxypropylcellulose) (HPC)", "result": "1 of 6"}
    ]},
    {"compound": "Cn1c(-c2ccc(Cl)cc2)cc2cc(CN3C(=O)c4ccccc4C3=O)ccc21", "values": [
      {"measurement": "survivor count", "setting": "dose: 200.0 mg/kg/injection, schedule: Q04DX003 (ip), vehicle: Klucel (hydroxypropylcellulose) (HPC)", "result": "6 of 6"}
    ]},
    {"compound": "O=c1c(O)cccn1C1OC(CO)C(O)C1O", "note": "(stereo unspecified)", "values": [
      {"measurement": "survivor count", "setting": "dose: 400.0 mg/kg/injection, schedule: Q01DX005 (ip), vehicle: saline", "result": "6 of 6"}
    ]},
    {"compound": "Nc1nc2ccc(CNc3ccc(C(=O)NC(CCC(=O)O)C(=O)O)cc3)nc2c(=O)[nH]1", "note": "(stereo unspecified)", "values": [
      {"measurement": "survivor count", "setting": "dose: 200.0 mg/kg/injection, schedule: Q04DX003 (ip), vehicle: saline with Tween-80", "result": "2 of 6"}
    ]},
    {"compound": "O=C(N/N=C/c1ccc(O)cc1O)c1cccnc1", "values": [
      {"measurement": "survivor count", "setting": "dose: 200.0 mg/kg/injection, schedule: Q01DX009 (ip), vehicle: olive oil, sesame oil, peanut oil", "result": "0 of 6"},
      {"measurement": "survivor count", "setting": "dose: 400.0 mg/kg/injection, schedule: Q01DX009 (ip), vehicle: olive oil, sesame oil, peanut oil", "result": "0 of 6"}
    ]},
    {"compound": "CC(C)CC(NC(=O)C(N)Cc1ccc(N(CCCl)CCCl)cc1)C(=O)O", "note": "(stereo unspecified)", "values": [
      {"measurement": "T/C", "setting": "dose: 2.5 mg/kg/injection, schedule: Q04DX003 (ip), vehicle: saline with Tween-80", "result": "144 % of control"},
      {"measurement": "T/C", "setting": "dose: 8.4 mg/kg/injection, schedule: Q04DX003 (ip), vehicle: saline with Tween-80", "result": "130 % of control"},
      {"measurement": "T/C", "setting": "dose: 12.6 mg/kg/injection, schedule: Q04DX003 (ip), vehicle: saline with Tween-80", "result": "138 % of control"},
      {"measurement": "T/C", "setting": "dose: 18.9 mg/kg/injection, schedule: Q04DX003 (ip), vehicle: saline with Tween-80", "result": "140 % of control"},
      {"measurement": "T/C", "setting": "[1]", "result": "149 % of control"},
      {"measurement": "survivor count", "setting": "[1]", "result": "10 of 10"},
      {"measurement": "survivor count", "setting": "dose: 32.0 mg/kg/injection, schedule: Q04DX003 (ip), vehicle: saline with Tween-80", "result": "5 of 10"},
      {"measurement": "survivor count", "setting": "dose: 42.6 mg/kg/injection, schedule: Q04DX003 (ip), vehicle: saline with Tween-80", "result": "8 of 10"},
      {"measurement": "survivor count", "setting": "dose: 64.0 mg/kg/injection, schedule: Q04DX003 (ip), vehicle: saline with Tween-80", "result": "5 of 10 and 7 of 10"},
      {"measurement": "survivor count", "setting": "dose: 128.0 mg/kg/injection, schedule: Q04DX003 (ip), vehicle: saline with Tween-80", "result": "0 of 10"},
      {"measurement": "survivor count", "setting": "dose: 256.0 mg/kg/injection, schedule: Q04DX003 (ip), vehicle: saline with Tween-80", "result": "0 of 10 and 5 of 10"}
    ]}
  ]
}
